The target of test [1] is T1, ScVps46 (S. cerevisiae Vps46), Gal4 activation domain fusion (S. cerevisiae) (UniProt P69771).
T1 sequence: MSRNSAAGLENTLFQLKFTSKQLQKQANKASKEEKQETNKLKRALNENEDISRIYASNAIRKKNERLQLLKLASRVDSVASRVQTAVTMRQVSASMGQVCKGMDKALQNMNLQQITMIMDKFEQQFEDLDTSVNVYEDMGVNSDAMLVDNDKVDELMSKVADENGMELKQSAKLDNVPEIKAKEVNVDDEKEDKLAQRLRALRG
As to the kind of experiment: two-hybrid; Gal4 BD and AD fusions in yeast PJ69-4A; growth spotted on SD leu-trp-his- with 2.5 mM 3-AT and on leu-trp-ade- plates, 3 days at 28°C; repeated with reversal of BD and AD fusions.

For test [2], the target named is T2, ScIst1 (S. cerevisiae Ist1), Gal4 DNA binding domain fusion (S. cerevisiae) (UniProt P53843).
T2 sequence: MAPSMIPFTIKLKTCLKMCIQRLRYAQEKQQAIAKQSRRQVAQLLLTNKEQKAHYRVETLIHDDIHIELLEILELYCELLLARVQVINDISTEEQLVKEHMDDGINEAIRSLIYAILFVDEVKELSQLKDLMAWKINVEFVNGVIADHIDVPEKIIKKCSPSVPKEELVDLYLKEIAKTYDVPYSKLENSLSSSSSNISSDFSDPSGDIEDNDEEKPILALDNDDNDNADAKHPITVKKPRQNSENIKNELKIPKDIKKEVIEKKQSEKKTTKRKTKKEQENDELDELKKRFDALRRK
As to the kind of experiment: two-hybrid; Gal4 BD (pGBT9) and AD (pGAD424) fusions in yeast PJ69-4A; quantitative β-galactosidase (LacZ reporter) activity; average of three independent experiments.

No constants are given. Whether binding was seen depends on the method and setting. Some results given as binding are weak or reduced against the parent protein; the word gives no strength. Where a sequence is shown, tags or fusion partners need not be part of it.

B1: ScVps4 (S. cerevisiae Vps4), Gal4 activation domain fusion (protein, UniProt P52917 1-437)
chain: MSTGDFLTKGIELVQKAIDLDTATQYEEAYTAYYNGLDYLMLALKYEKNPKSKDLIRAKFTEYLNRAEQLKKHLESEEANAAKKSPSAGSGSNGGNKKISQEEGEDNGGEDNKKLRGALSSAILSEKPNVKWEDVAGLEGAKEALKEAVILPVKFPHLFKGNRKPTSGILLYGPPGTGKSYLAKAVATEANSTFFSVSSSDLVSKWMGESEKLVKQLFAMARENKPSIIFIDEVDALTGTRGEGESEASRRIKTELLVQMNGVGNDSQGVLVLGATNIPWQLDSAIRRRFERRIYIPLPDLAARTTMFEINVGDTPCVLTKEDYRTLGAMTEGYSGSDIAVVVKDALMQPIRKIQSATHFKDVSTEDDETRKLTPCSPGDDGAIEMSWTDIEADELKEPDLTIKDFLKAIKSTRPTVNEDDLLKQEQFTRDFGQEGN
As to B1, the binding entry in test [1] and in test [2] was “binds” throughout.

B2: ScVps46 (S. cerevisiae Vps46), Gal4 activation domain fusion (protein, UniProt P69771 1-204)
chain: T1 sequence
With B2, the binding entry in test [2] was “binds”.

The record behind these values is publication PMC12611102.
